PubChem BioAssay AID1159584, Peter MacCallum Cancer Centre, 2016
Shown is a random part of about 18,000 reagents. The record does not give: the amount of reagent, the time to read-out.

- Aim: 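Genes whose loss is lethal only together with E-cadherin loss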 (primary screen)
- System: human MCF10A breast epithelial cells, parental and CDH1-null
- Knock-down reagent: siRNA against human genes
- Read-out: 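Cell viability by CellTiter-Glo ATP luminescence, each line scaled to the mean of mock wells across plates, then CDH1-null over parental ratio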
- Scale: CDH1-null / parental viability ratio: higher = CDH1-null cells survive relatively better than parental; CDH1-null viability vs mock: higher = more viable CDH1-null cells; parental viability vs mock: higher = more viable parental cells

gene symbol,CDH1-null / parental viability ratio,CDH1-null viability vs mock (fraction of mock),parental viability vs mock (fraction of mock)
H3C1 (GeneID 8350),1.15,0.94,0.82
PCDHB10 (GeneID 56126),1.07,1.16,1.08
OGDH (GeneID 4967),0.9,0.61,0.68
NKX3-1 (GeneID 4824),1.24,0.92,0.74
KANSL1L (GeneID 151050),1.07,1.12,1.05
FAHD2A (GeneID 51011),0.84,0.78,0.93
NIF3L1 (GeneID 60491),0.78,0.39,0.5
FRS3 (GeneID 10817),1.21,0.98,0.81
MMP7 (GeneID 4316),1.33,0.89,0.67
CBL (GeneID 867),1.02,0.96,0.94
SCN2B (GeneID 6327),1.08,0.82,0.76
ADCYAP1R1 (GeneID 117),1.35,0.88,0.65
PI4KAP2 (GeneID 375133),0.95,0.8,0.84
TMPRSS13 (GeneID 84000),0.94,0.6,0.64
MEI1 (GeneID 150365),1.08,0.82,0.76
APBB3 (GeneID 10307),1,0.95,0.95
SULT6B1 (GeneID 391365),1.05,0.91,0.87
TMEM132E (GeneID 124842),1.04,0.54,0.52
HOGA1 (GeneID 112817),1.39,0.85,0.61
PCDHGA12 (GeneID 26025),0.99,0.89,0.9
OR51I1 (GeneID 390063),0.79,0.78,0.99
SERPINA9 (GeneID 327657),1.12,1.18,1.05
EIF4E3 (GeneID 317649),0.76,0.72,0.95
HSD3B1 (GeneID 3283),0.87,0.69,0.79
FYCO1 (GeneID 79443),1.08,1.06,0.98
ZNF382 (GeneID 84911),1,0.45,0.45
TRPM1 (GeneID 4308),1.21,0.92,0.76
CD302 (GeneID 9936),1.06,1,0.94
EMP2 (GeneID 2013),1.06,0.9,0.85
MAPKAPK2 (GeneID 9261),0.96,0.79,0.82
SLC18A2 (GeneID 6571),1.08,1.04,0.96
MRGPRG (GeneID 386746),0.83,0.78,0.94
ALAS2 (GeneID 212),1.08,1,0.93
TICRR (GeneID 90381),0.9,0.65,0.72
MTMR9 (GeneID 66036),1.39,1,0.72
HAPLN3 (GeneID 145864),1.06,0.53,0.5
EPB41 (GeneID 2035),1.03,0.8,0.78

A run of entries taken from the entries so far:
gene symbol,CDH1-null / parental viability ratio,CDH1-null viability vs mock (fraction of mock),parental viability vs mock (fraction of mock)
MMP7 (GeneID 4316),1.33,0.89,0.67
CBL (GeneID 867),1.02,0.96,0.94
SCN2B (GeneID 6327),1.08,0.82,0.76
ADCYAP1R1 (GeneID 117),1.35,0.88,0.65

Continued:
gene symbol,CDH1-null / parental viability ratio,CDH1-null viability vs mock (fraction of mock),parental viability vs mock (fraction of mock)
SPATA31H1 (GeneID 84226),0.9,0.35,0.39
PYM1 (GeneID 84305),0.99,0.73,0.74
H1-5 (GeneID 3009),1.27,0.33,0.26
RPS28 (GeneID 6234),1.85,0.48,0.26
ST18 (GeneID 9705),1.14,1.03,0.9
C1orf210 (GeneID 149466),1.27,0.56,0.44
SGTA (GeneID 6449),1.04,0.82,0.79
PHF5A (GeneID 84844),0.98,0.94,0.96
XRCC2 (GeneID 7516),1.35,0.97,0.72
EXOC1 (GeneID 55763),0.96,0.72,0.75
ZFX (GeneID 7543),1.04,0.96,0.92
C8A (GeneID 731),0.74,0.52,0.7
GPR82 (GeneID 27197),0.83,0.78,0.94
WDR12 (GeneID 55759),0.76,0.5,0.66
MED17 (GeneID 9440),1.07,0.9,0.84
RXRB (GeneID 6257),0.85,0.8,0.94
ABCB4 (GeneID 5244),0.88,1,1.13
HSF1 (GeneID 3297),0.98,0.88,0.9
IGSF9 (GeneID 57549),1.03,0.8,0.78
AP4B1 (GeneID 10717),1.24,1.09,0.88
SELENOK (GeneID 58515),1.14,0.9,0.79
USP32 (GeneID 84669),1.12,0.64,0.57
NSUN2 (GeneID 54888),1.14,0.97,0.85
ATP5F1A (GeneID 498),0.82,0.97,1.19
SIX5 (GeneID 147912),0.75,0.51,0.68
JUNB (GeneID 3726),1.12,0.56,0.5
KCTD9 (GeneID 54793),0.87,0.68,0.78
RPS6KB2 (GeneID 6199),1.07,0.88,0.82
OR2L13 (GeneID 284521),0.84,0.76,0.91
MAGT1 (GeneID 84061),0.88,0.81,0.92
ALG12 (GeneID 79087),1.16,0.78,0.67
